The list shows a part of the results.
What was measured:
Test in all cases: log2 fold change, soluble protein after heating vs DMSO (PISA); higher = thermal stabilisation; K562 cells, 10 uM, 30 min; active = over 0.2 and 3.5 SD of the protein, either way, in both replicates (recomputed)
[1] = compound: CC[C@@H]1C(=O)N(C)c2cnc(Nc3ccc(C(=O)NC4CCN(C)CC4)cc3OC)nc2N1C1CCCC1
How it was run: (§1)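 Values are thermal stability changes relative to control samples and are taken from duplicates. They are stated as log2 fold changes. Before quantification by TMTpro 16plex LC-MS/MS with equalised channel sums, K562 cells at 2×10^6 cells/mL were treated with 10 μM compound for 30 min, heated in aliquots for 3 min across 48°C-58°C, pooled, extracted in PBS with 0.5% NP-40 at 4°C, and centrifuged at 21,000xg for 90 min to give the soluble supernatant.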

Sequences of proteins named here, by UniProt entry; tags and fusion partners are left off. A change or cut given only in a name is not applied to a line headed by its entry.
UniProt P98194: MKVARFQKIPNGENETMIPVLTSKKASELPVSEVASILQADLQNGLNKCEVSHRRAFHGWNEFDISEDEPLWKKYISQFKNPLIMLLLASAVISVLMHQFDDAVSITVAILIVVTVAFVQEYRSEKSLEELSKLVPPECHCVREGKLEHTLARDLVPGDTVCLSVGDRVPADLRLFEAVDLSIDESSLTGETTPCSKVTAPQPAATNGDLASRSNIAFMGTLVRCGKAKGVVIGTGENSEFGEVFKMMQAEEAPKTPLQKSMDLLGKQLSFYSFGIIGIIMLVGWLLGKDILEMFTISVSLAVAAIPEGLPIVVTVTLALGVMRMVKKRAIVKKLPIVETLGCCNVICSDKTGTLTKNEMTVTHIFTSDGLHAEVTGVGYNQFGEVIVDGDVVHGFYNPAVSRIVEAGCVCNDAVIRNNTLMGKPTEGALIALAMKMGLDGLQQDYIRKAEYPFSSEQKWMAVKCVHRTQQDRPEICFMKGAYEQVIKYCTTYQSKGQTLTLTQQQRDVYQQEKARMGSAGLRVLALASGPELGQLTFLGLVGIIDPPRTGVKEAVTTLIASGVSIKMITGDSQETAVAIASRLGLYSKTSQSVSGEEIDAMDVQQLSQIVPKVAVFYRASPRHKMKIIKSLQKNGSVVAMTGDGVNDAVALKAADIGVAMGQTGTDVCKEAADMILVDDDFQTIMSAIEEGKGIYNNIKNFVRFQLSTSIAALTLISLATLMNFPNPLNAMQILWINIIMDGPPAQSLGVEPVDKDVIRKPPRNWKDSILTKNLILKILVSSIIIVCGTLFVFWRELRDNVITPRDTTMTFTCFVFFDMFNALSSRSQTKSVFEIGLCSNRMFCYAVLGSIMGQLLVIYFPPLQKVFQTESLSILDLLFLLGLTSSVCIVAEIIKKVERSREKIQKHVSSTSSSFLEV
UniProt Q8NB49: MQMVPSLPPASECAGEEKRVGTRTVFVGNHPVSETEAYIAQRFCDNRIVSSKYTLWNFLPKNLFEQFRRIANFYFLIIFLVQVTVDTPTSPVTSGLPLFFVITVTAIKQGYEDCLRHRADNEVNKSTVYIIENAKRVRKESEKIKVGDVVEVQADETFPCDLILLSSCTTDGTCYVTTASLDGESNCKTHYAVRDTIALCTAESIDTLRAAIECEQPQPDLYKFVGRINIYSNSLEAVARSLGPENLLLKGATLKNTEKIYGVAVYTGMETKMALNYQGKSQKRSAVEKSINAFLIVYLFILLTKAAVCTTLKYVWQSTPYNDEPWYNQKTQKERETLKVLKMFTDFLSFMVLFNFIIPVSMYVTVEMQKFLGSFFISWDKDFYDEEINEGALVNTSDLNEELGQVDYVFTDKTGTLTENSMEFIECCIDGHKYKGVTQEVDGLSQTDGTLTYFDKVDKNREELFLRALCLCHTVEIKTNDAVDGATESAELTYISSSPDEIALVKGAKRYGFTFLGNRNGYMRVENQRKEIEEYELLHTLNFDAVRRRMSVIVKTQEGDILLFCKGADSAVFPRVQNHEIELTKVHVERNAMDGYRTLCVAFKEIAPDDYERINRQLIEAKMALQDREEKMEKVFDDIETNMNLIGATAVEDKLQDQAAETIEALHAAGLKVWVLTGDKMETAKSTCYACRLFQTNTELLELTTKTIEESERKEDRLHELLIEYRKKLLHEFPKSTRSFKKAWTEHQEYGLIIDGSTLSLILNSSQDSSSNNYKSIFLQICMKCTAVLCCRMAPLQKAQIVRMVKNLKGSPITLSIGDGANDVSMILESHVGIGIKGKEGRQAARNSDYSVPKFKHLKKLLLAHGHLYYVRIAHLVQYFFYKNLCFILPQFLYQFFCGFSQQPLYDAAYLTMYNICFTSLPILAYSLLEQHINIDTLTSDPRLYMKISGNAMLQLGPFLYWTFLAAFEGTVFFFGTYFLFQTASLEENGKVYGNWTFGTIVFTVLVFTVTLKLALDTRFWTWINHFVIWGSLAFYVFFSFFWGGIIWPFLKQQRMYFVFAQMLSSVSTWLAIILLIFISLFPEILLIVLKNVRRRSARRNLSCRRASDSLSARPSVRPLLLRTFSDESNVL
UniProt O75915: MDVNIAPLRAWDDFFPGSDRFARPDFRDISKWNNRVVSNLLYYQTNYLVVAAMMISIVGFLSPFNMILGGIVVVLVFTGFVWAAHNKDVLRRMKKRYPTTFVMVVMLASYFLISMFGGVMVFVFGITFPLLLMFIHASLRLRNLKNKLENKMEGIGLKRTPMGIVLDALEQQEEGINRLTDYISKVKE
UniProt O95671: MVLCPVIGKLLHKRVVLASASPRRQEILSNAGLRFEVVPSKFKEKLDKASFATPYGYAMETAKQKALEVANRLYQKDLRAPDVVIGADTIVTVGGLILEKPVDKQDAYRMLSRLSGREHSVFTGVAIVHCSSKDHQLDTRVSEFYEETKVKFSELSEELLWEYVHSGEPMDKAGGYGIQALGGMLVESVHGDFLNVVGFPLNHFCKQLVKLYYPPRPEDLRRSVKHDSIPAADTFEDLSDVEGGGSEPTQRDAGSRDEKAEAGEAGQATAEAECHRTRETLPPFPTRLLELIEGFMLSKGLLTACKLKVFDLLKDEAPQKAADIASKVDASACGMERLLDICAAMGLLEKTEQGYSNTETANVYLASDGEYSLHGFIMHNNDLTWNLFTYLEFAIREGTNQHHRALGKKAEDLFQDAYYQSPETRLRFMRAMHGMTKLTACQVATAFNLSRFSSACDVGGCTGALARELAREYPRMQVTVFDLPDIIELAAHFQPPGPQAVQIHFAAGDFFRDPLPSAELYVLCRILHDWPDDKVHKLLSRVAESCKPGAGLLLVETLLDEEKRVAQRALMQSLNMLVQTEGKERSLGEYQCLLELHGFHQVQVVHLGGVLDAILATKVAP
UniProt P48047: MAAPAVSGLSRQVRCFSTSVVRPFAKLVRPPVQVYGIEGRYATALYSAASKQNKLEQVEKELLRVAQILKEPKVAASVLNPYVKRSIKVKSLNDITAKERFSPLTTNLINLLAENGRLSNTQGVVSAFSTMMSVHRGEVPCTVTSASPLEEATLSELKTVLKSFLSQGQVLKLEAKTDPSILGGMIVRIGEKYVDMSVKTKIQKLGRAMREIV
UniProt Q96BM9: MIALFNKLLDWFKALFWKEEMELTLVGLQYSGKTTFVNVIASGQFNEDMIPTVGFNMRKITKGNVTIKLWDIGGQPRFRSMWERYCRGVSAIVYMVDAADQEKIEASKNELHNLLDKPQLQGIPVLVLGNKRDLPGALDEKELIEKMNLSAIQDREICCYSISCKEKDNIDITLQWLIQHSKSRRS
UniProt P36404: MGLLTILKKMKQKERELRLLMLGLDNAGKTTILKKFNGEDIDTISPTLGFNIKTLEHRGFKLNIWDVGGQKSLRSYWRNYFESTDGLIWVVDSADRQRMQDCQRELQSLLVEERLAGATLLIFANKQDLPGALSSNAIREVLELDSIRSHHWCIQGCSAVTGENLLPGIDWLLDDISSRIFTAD
UniProt Q9H993: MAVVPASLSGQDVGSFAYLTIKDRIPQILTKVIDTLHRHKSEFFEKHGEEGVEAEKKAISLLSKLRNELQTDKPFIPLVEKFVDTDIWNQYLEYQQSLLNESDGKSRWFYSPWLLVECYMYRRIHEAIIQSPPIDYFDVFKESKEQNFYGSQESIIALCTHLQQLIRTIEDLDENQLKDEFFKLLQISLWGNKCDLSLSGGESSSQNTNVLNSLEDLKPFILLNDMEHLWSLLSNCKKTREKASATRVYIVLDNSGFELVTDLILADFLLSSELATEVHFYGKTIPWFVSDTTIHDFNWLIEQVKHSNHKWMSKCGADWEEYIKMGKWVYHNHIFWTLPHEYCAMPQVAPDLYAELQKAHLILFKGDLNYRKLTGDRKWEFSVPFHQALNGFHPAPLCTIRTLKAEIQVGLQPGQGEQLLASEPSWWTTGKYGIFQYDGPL
UniProt Q04656: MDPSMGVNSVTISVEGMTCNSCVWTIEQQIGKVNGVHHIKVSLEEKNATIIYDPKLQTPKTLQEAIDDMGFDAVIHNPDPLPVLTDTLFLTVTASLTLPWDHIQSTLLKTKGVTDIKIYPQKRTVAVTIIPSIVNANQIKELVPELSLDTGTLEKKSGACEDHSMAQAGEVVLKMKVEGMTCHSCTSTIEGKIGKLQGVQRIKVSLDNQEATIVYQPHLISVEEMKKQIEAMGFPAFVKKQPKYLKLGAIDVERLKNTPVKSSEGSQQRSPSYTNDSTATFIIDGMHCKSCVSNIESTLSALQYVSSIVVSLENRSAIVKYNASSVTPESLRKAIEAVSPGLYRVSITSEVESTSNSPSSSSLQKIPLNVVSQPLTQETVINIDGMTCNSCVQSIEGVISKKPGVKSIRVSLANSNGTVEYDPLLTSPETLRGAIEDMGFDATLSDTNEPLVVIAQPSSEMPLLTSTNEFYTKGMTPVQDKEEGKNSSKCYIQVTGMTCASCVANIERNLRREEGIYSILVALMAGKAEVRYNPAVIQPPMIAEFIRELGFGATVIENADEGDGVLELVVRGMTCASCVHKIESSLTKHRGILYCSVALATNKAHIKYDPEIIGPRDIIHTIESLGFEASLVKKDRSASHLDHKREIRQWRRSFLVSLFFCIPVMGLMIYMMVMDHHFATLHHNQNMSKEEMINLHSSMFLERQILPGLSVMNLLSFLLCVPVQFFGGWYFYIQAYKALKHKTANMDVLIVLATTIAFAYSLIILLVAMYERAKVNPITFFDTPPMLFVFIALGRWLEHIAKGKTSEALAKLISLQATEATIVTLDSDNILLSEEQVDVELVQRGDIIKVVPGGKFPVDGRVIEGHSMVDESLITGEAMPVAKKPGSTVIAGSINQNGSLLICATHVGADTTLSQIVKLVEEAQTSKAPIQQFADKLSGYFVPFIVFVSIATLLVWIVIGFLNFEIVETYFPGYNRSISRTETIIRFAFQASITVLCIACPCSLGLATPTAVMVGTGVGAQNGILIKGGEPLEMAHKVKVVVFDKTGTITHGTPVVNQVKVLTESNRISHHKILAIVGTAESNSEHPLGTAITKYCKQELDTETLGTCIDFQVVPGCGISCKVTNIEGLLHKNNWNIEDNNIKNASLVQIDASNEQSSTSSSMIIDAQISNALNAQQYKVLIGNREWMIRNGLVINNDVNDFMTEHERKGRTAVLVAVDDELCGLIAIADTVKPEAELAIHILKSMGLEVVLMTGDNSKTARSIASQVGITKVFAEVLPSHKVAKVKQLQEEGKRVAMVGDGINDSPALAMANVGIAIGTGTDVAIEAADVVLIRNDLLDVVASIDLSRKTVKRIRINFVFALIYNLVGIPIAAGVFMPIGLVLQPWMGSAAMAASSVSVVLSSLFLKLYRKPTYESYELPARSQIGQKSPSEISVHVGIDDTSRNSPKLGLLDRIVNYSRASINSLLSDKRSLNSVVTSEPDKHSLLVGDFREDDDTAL
UniProt P98196: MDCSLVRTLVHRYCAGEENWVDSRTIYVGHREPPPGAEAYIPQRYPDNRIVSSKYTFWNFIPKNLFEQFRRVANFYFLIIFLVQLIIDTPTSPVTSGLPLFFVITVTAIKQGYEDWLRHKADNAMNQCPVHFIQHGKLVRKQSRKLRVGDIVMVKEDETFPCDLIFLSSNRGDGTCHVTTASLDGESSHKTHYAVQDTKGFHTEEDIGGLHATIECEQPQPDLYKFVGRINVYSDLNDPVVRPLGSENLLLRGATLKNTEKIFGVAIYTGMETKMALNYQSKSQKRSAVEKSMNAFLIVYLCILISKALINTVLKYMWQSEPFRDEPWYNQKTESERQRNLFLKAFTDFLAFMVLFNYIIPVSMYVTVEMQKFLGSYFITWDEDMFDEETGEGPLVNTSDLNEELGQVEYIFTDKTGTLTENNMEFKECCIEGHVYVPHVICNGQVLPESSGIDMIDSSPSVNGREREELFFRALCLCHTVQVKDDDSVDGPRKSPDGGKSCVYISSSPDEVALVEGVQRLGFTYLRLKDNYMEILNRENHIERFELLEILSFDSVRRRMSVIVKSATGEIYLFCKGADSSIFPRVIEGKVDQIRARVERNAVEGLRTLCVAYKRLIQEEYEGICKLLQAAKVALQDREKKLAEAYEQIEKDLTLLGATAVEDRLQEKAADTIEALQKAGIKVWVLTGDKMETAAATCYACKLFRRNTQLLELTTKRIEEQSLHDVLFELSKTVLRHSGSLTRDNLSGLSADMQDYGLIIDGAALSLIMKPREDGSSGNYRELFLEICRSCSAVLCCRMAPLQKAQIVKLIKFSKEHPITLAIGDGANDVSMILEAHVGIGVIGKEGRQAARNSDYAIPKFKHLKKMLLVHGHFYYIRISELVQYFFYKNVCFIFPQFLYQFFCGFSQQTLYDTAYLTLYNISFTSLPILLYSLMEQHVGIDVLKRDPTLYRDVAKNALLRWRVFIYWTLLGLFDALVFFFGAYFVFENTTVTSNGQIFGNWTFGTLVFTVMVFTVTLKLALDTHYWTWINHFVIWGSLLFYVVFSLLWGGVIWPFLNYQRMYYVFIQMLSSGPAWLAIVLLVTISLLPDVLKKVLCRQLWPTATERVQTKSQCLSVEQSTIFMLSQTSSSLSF

volasertib = compound: CC[C@@H]1C(=O)N(C)c2cnc(Nc3ccc(C(=O)N[C@H]4CC[C@H](N5CCN(CC6CC6)CC5)CC4)cc3OC)nc2N1C(C)C [volasertib]
How it was run: as §1

[2] = compound: CC[C@H](C)N1C=C(C2=C(C=C(C=C21)C3=CN=C(C=C3)N4CCNCC4)C(=O)NCC5=C(C=C(NC5=O)C)C)C
How it was run: as §1

epoxomicin = compound: CC[C@H](C)[C@@H](C(=O)N[C@@H]([C@@H](C)O)C(=O)N[C@@H](CC(C)C)C(=O)[C@]1(CO1)C)NC(=O)[C@H]([C@@H](C)CC)N(C)C(=O)C [epoxomicin]
How it was run: as §1

[3] = compound: CCn1c(C(=O)N(C2CC2)C2CC2)cc2c3c(ncn3C)c(Nc3cc(C)n(C)n3)nc21
How it was run: as §1

[4] = compound: CCn1cc(-c2ccnc3[nH]c(-c4cccc(CN(C)C)c4)cc23)c(-c2ccc(NC(=O)N(C)C)cc2)n1
How it was run: as §1

[5] = compound: CN(C)CC(=O)Nc1ccc2[nH]c(=O)c3ccccc3c2c1
How it was run: as §1

rosiglitazone = compound: CN(CCOC1=CC=C(C=C1)C[C@H]2C(=O)NC(=O)S2)C3=CC=CC=N3 (racemic) [rosiglitazone]
How it was run: as §1

[6] = compound: CN1C2=C(C3=C1C(=O)N(N=C3)CC4=CC(=CC=C4)N)SC(=C2)S(=O)C
How it was run: as §1

[7] = compound: CN1CCC(CNc2ccc3ncc(-c4cccc(OC(F)(F)F)c4)n3n2)CC1
How it was run: as §1

saracatinib = compound: CN1CCN(CCOc2cc(OC3CCOCC3)c3c(Nc4c(Cl)ccc5c4OCO5)ncnc3c2)CC1 [saracatinib]
How it was run: as §1

sotrastaurin = compound: CN1CCN(c2nc(C3=C(c4c[nH]c5ccccc45)C(=O)NC3=O)c3ccccc3n2)CC1 [sotrastaurin]
How it was run: as §1

alvocidib = compound: CN1CC[C@H](c2c(O)cc(O)c3c(=O)cc(-c4ccccc4Cl)oc23)[C@H](O)C1 [alvocidib]
How it was run: as §1

Tubastatin A = compound: CN1CCc2c(c3ccccc3n2Cc2ccc(C(=O)NO)cc2)C1 [Tubastatin A]
How it was run: as §1

[8] = compound: CNC(=O)C1=CC=CC=C1NC2=NC(=NC=C2Cl)NC3=C(C=C(C=C3)N4CCOCC4)OC
How it was run: as §1

defactinib = compound: CNC(=O)c1ccc(Nc2ncc(C(F)(F)F)c(NCc3nccnc3N(C)S(C)(=O)=O)n2)cc1 [defactinib]
How it was run: as §1

rucaparib = compound: CNCc1ccc(-c2[nH]c3cc(F)cc4c3c2CCNC4=O)cc1 [rucaparib]
How it was run: as §1

[9] = compound: CNc1nc(-c2ccc3c(N)n[nH]c3c2)cc(N2C[C@@H](C(=O)NC3CCCCC3)CC[C@H]2C)n1
How it was run: as §1

encorafenib = compound: COC(=O)N[C@@H](C)CNc1nccc(-c2cn(C(C)C)nc2-c2cc(Cl)cc(NS(C)(=O)=O)c2F)n1 [encorafenib]
How it was run: as §1

[10] = compound: COC(=O)[C@H](CCSC)NC(=O)C1=C(C=C(C=C1)NC[C@H](CS)N)C2=CC=CC=C2
How it was run: as §1

Measured: log2 fold change

ARPC3 (UniProt O15145)
inactive: [1] -0.031 | volasertib -0.03 | [2] -0.024 | epoxomicin 0.054 | [3] 0.047 | [4] -0.029 | [5] 0.002 | rosiglitazone -0.045 | [6] -0.046 | [7] -0.009 | saracatinib 0.05 | sotrastaurin -0.007 | alvocidib -0.023 | Tubastatin A 0.014 | [8] 0.043 | defactinib -0.04 | rucaparib 0.01 | [9] -0.037 | encorafenib -0.045 | [10] -0.004

ATP2C1 isoform 7 (UniProt P98194)
inactive: [1] 0.002 | volasertib -0.113 | [2] -0.027 | epoxomicin 0.118 | [3] -0.008 | [4] 0.097 | [5] -0.002 | rosiglitazone 0.029 | [6] -0.032 | [7] -0.096 | saracatinib 0.018 | sotrastaurin 0.065 | alvocidib 0.037 | Tubastatin A -0.04 | [8] -0.006 | defactinib -0.045 | rucaparib -0.042 | [9] -0.043 | encorafenib 0 | [10] 0.009

ARL15 (UniProt Q9NXU5)
inactive: [1] -0.114 | volasertib -0.052 | [2] 0.01 | epoxomicin 0.019 | [3] -0.023 | [4] -0.029 | [5] 0.066 | rosiglitazone -0.022 | [6] -0.016 | [7] 0 | saracatinib 0.011 | sotrastaurin -0.035 | alvocidib -0.117 | Tubastatin A 0.005 | [8] -0.089 | defactinib -0.03 | rucaparib 0.084 | [9] -0.026 | encorafenib 0.009 | [10] -0.039

ATP11C (UniProt Q8NB49)
inactive: [1] 0.089 | volasertib 0.022 | [2] 0.012 | epoxomicin 0.007 | [3] 0.036 | [4] -0.071 | [5] 0.042 | rosiglitazone -0.021 | [6] -0.104 | [7] -0.075 | saracatinib 0.018 | sotrastaurin -0.021 | alvocidib -0.014 | Tubastatin A -0.028 | [8] 0.002 | defactinib -0.016 | rucaparib -0.016 | [9] 0.036 | encorafenib 0.005 | [10] 0.005

Copied from the entries so far (two entries):
ARPC3 (UniProt O15145)
inactive: [1] -0.031 | volasertib -0.03 | [2] -0.024 | epoxomicin 0.054 | [3] 0.047 | [4] -0.029 | [5] 0.002 | rosiglitazone -0.045 | [6] -0.046 | [7] -0.009 | saracatinib 0.05 | sotrastaurin -0.007 | alvocidib -0.023 | Tubastatin A 0.014 | [8] 0.043 | defactinib -0.04 | rucaparib 0.01 | [9] -0.037 | encorafenib -0.045 | [10] -0.004

ATP2C1 isoform 7 (UniProt P98194)
inactive: [1] 0.002 | volasertib -0.113 | [2] -0.027 | epoxomicin 0.118 | [3] -0.008 | [4] 0.097 | [5] -0.002 | rosiglitazone 0.029 | [6] -0.032 | [7] -0.096 | saracatinib 0.018 | sotrastaurin 0.065 | alvocidib 0.037 | Tubastatin A -0.04 | [8] -0.006 | defactinib -0.045 | rucaparib -0.042 | [9] -0.043 | encorafenib 0 | [10] 0.009

Additional entries

ASCC3 (UniProt Q8N3C0)
inactive: [1] 0.146 | volasertib -0.037 | [2] -0.094 | epoxomicin -0.22 | [3] -0.107 | [4] 0.047 | [5] -0.011 | rosiglitazone -0.147 | [6] 0.211 | [7] -0.006 | saracatinib -0.148 | sotrastaurin -0.167 | alvocidib 0.25 | Tubastatin A 0.142 | [8] 0.075 | defactinib 0.168 | rucaparib 0.229 | [9] 0.09 | encorafenib -0.031 | [10] -0.015

ATP5MC2 isoform 2 (UniProt Q06055)
inactive: [1] 0.022 | volasertib 0.146 | [2] -0.123 | epoxomicin 0.018 | [3] 0.011 | [4] 0.022 | [5] 0.124 | rosiglitazone 0.031 | [6] 0.054 | [7] 0.01 | saracatinib 0.058 | sotrastaurin 0.054 | alvocidib 0.04 | Tubastatin A -0.061 | [8] 0.101 | defactinib -0.041 | rucaparib -0.126 | [9] -0.232 | encorafenib 0.016 | [10] 0.14

ARL6IP5 (UniProt O75915)
inactive: [1] 0.105 | volasertib -0.007 | [2] -0.123 | epoxomicin -0.002 | [3] 0.049 | [4] -0.001 | [5] -0.02 | rosiglitazone 0.005 | [6] -0.104 | [7] 0.001 | saracatinib 0.001 | sotrastaurin 0.02 | alvocidib 0.04 | Tubastatin A -0.02 | [8] -0.009 | defactinib -0.019 | rucaparib -0.001 | [9] -0.021 | encorafenib 0.05 | [10] 0.013

ASMTL (UniProt O95671)
inactive: [1] 0.106 | volasertib -0.143 | [2] -0.013 | epoxomicin -0.22 | [3] -0.072 | [4] -0.076 | [5] -0.038 | rosiglitazone -0.015 | [6] 0.006 | [7] -0.047 | saracatinib -0.082 | sotrastaurin -0.007 | alvocidib 0.013 | Tubastatin A 0.049 | [8] -0.057 | defactinib -0.083 | rucaparib -0.035 | [9] 0.089 | encorafenib 0.088 | [10] -0.16

ATP5PO (UniProt P48047)
inactive: [1] -0.017 | volasertib 0.06 | [2] -0.023 | epoxomicin 0.069 | [3] 0.034 | [4] 0.019 | [5] 0.005 | rosiglitazone -0.025 | [6] 0.001 | [7] 0.087 | saracatinib 0.013 | sotrastaurin 0.023 | alvocidib 0.029 | Tubastatin A -0.023 | [8] 0.014 | defactinib 0.014 | rucaparib 0.011 | [9] -0.037 | encorafenib -0.029 | [10] 0.028

ASPM (UniProt Q8IZT6)
inactive: [1] 0.103 | volasertib 0.095 | [2] 0.1 | epoxomicin 0.112 | [3] 0.039 | [4] 0.074 | [5] 0.013 | rosiglitazone -0.065 | [6] -0.096 | [7] -0.307 | saracatinib -0.009 | sotrastaurin -0.012 | alvocidib -0.125 | Tubastatin A -0.045 | [8] 0.035 | defactinib -0.096 | rucaparib 0.209 | [9] -0.083 | encorafenib -0.044 | [10] 0.039

ARL8A (UniProt Q96BM9)
inactive: [1] -0.037 | volasertib 0.043 | [2] 0.017 | epoxomicin -0.008 | [3] -0.024 | [4] 0.005 | [5] -0.043 | rosiglitazone -0.003 | [6] 0 | [7] -0.127 | saracatinib -0.002 | sotrastaurin -0.105 | alvocidib -0.01 | Tubastatin A 0.117 | [8] -0.043 | defactinib 0.004 | rucaparib 0.045 | [9] -0.007 | encorafenib -0.071 | [10] 0.007

ARL2 (UniProt P36404)
inactive: [1] 0.016 | volasertib 0.12 | [2] -0.026 | epoxomicin 0.095 | [3] 0.012 | [4] -0.003 | [5] 0.016 | rosiglitazone 0.016 | [6] -0.069 | [7] -0.112 | saracatinib 0.065 | sotrastaurin 0.02 | alvocidib -0.013 | Tubastatin A 0.031 | [8] -0.034 | defactinib -0.031 | rucaparib -0.033 | [9] -0.008 | encorafenib 0.006 | [10] -0.039

ARMT1 (UniProt Q9H993)
inactive: [1] -0.206 | volasertib -0.411 | [2] 0.254 | epoxomicin 0.028 | [3] -0.062 | [4] -0.078 | [5] 0.125 | rosiglitazone 0.093 | [6] 0.2 | [7] -0.281 | saracatinib -0.217 | sotrastaurin -0.396 | alvocidib -0.003 | Tubastatin A 0.273 | [8] -0.075 | defactinib -0.014 | rucaparib 0.208 | [9] 0.121 | encorafenib 0.196 | [10] -0.103

ATP7A isoform 3 (UniProt Q04656)
inactive: [1] 0.001 | volasertib -0.109 | [2] -0.027 | epoxomicin -0.02 | [3] -0.022 | [4] -0.016 | [5] 0.01 | rosiglitazone 0.016 | [6] -0.03 | [7] 0.086 | saracatinib 0.001 | sotrastaurin -0.009 | alvocidib -0.036 | Tubastatin A -0.025 | [8] 0.039 | defactinib -0.024 | rucaparib -0.026 | [9] 0.035 | encorafenib 0.045 | [10] 0.014

ARL5A (UniProt Q9Y689)
inactive: [1] 0.116 | volasertib -0.144 | [2] 0.046 | epoxomicin 0.179 | [3] 0.051 | [4] 0.115 | rosiglitazone -0.013 | [6] -0.013 | [7] -0.123 | saracatinib 0.163 | sotrastaurin 0.042 | alvocidib 0.009 | Tubastatin A -0.015 | [8] -0.006 | rucaparib -0.071 | [9] 0.075 | encorafenib 0.127

ATP11A (UniProt P98196)
inactive: [1] 0.266 | volasertib 0.058 | [2] -0.094 | epoxomicin 0.001 | [4] -0.022 | [5] 0.031 | [6] -0.083 | [7] 0.084 | saracatinib 0.082 | sotrastaurin 0.094 | Tubastatin A 0.007 | [8] -0.002 | defactinib -0.093 | rucaparib 0.192 | [9] 0.044 | encorafenib 0.008 | [10] 0.017

Source: the supplement of paper PMC10849652
